According to PMC6527189:
Results are given in words; binding and its absence hold for the method and conditions named. In cells and extracts the contact can be indirect. Some entries that bind do so weakly or less than the wild type.

Sequences of proteins named here, by UniProt entry; tags and fusion partners are left off.
UniProt Q8N884: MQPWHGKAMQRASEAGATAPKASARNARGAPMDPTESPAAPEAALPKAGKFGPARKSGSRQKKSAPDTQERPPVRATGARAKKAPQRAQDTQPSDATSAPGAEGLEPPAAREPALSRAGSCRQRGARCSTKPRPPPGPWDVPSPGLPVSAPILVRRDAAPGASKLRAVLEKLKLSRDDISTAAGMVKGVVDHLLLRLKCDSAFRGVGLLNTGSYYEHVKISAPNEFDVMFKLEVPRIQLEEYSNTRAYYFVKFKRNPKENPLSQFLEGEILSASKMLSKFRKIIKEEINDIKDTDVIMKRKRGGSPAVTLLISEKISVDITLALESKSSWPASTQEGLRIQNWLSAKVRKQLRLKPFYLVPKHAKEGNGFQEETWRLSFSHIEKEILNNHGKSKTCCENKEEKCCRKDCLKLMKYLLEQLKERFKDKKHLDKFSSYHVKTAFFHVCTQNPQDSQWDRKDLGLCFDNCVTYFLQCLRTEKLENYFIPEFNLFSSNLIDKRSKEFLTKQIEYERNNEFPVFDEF
UniProt Q86WV6: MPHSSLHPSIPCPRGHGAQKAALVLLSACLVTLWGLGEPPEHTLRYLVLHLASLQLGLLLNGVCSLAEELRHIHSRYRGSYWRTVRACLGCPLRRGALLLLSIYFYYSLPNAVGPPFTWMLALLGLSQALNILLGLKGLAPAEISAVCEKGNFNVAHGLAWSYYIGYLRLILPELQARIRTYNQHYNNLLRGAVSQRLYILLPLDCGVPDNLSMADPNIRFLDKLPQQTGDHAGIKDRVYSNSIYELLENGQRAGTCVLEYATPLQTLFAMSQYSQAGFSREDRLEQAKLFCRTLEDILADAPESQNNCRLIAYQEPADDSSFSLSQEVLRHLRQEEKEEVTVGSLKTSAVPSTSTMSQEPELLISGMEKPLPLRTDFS
UniProt P16815: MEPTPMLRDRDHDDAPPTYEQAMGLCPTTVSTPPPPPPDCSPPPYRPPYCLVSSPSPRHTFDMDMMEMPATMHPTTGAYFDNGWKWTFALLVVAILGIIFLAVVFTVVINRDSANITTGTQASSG

Tests used:
[1] = target: cGAS (endogenous in HFFs) (human (endogenous in HFF)) (UniProt Q8N884); experiment: co-IP
[2] = target: MITA (endogenous in HFFs) (human (endogenous in HFF)) (UniProt Q86WV6); experiment: co-IP

HCMV UL42 (endogenous, from infection) (from UniProt P16815 1-125)
binding [1]: binds | binding [2]: binds
